Our source for the binding values is paper PMC10646090.

Sequences of proteins named here, by UniProt entry; tags and fusion partners are left off.
UniProt Q00987: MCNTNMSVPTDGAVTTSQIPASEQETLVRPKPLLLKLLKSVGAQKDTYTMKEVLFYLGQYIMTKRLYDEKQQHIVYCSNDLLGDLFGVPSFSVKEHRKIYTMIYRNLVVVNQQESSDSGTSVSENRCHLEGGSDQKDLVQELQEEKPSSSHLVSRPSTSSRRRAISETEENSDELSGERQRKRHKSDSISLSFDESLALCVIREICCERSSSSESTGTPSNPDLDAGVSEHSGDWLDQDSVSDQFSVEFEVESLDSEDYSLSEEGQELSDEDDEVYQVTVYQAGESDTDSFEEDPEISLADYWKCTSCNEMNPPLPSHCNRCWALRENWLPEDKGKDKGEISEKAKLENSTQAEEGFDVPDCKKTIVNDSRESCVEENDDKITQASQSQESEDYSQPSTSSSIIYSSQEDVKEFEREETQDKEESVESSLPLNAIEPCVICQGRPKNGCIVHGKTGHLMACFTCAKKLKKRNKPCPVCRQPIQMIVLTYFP

The target of assay [1] is T1, human LASS2-GFP (from the recombinant human adenovirus vector overexpressing LASS2, Adv-hLASS2-GFP) (human) (UniProt Q96G23).
T1 sequence: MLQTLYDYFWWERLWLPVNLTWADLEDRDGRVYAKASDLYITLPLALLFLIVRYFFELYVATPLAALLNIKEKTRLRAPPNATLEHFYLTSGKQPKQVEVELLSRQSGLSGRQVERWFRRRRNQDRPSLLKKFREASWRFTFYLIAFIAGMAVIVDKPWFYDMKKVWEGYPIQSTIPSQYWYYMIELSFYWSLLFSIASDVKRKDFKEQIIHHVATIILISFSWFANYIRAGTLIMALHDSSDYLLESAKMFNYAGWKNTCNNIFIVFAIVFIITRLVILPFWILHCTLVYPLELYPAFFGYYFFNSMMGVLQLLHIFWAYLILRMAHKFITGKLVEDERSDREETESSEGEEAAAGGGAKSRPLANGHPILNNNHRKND
Briefly: co-IP; HepG2, HCCLM3 and HuCCT1 cells transiently transfected with Adv-GFP or Adv-hLASS2-GFP; GFP Nanoselector beads for immunoprecipitation; western blot with anti-GFP, anti-LASS2, anti-MDM2 and anti-MDMX.

Assay [2] concerns the target T2, LASS2 (endogenous, human hepatoma cells) (human (endogenous in HepG2 and HCCLM3)) (UniProt Q96G23).
T2 sequence: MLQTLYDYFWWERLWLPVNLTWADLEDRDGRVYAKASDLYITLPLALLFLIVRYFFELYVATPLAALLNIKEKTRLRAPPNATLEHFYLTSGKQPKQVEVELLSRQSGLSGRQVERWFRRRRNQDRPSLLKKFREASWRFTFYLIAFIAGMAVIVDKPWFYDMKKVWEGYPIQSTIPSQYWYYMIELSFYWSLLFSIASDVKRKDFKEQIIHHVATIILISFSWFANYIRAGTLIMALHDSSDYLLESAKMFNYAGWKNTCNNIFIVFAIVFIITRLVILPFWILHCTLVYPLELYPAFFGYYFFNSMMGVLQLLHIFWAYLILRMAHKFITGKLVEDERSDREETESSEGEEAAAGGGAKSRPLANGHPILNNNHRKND
Briefly: proximity ligation; Duolink PLA in situ on fixed, permeabilised HepG2 (WT p53) and HCCLM3 (mutant p53) cells; anti-LASS2 with anti-MDM2 or anti-MDMX overnight at 4 °C; confocal microscopy.

No constants are given. Whether binding was seen depends on the method and setting. In cells and extracts the contact can be indirect. Some results given as binding are weak or reduced against the parent protein; the word gives no strength. For some of these results: Where a sequence is shown, tags or fusion partners need not be part of it.

On to “MDM2 (endogenous, human hepatoma cells) (from UniProt Q00987 1-491)”, for which the binding result in assay [1] and in assay [2] was “binds” each time.

B1: MDMX (endogenous, human hepatoma cells) (protein, UniProt O15151 1-490)
chain: MTSFSTSAQCSTSDSACRISPGQINQVRPKLPLLKILHAAGAQGEMFTVKEVMHYLGQYIMVKQLYDQQEQHMVYCGGDLLGELLGRQSFSVKDPSPLYDMLRKNLVTLATATTDAAQTLALAQDHSMDIPSQDQLKQSAEESSTSRKRTTEDDIPTLPTSEHKCIHSREDEDLIENLAQDETSRLDLGFEEWDVAGLPWWFLGNLRSNYTPRSNGSTDLQTNQDVGTAIVSDTTDDLWFLNESVSEQLGVGIKVEAADTEQTSEEVGKVSDKKVIEVGKNDDLEDSKSLSDDTDVEVTSEDEWQCTECKKFNSPSKRYCFRCWALRKDWYSDCSKLTHSLSTSDITAIPEKENEGNDVPDCRRTISAPVVRPKDAYIKKENSKLFDPCNSVEFLDLAHSSESQETISSMGEQLDNLSEQRTDTENMEDCQNLLKPCSLCEKRPRDGNIIHGRTGHLVTCFHCARRLKKAGASCPICKKEIQLVIKVFIA
As to B1, the binding entry in assay [1] and in assay [2] was “binds” each time.
